Measured values published in the supplement of paper PMC10338343.
± gives the standard deviation. The entries are a selection whose mix differs from that of the whole data set. The uncertainty is large for many entries.

Each sequence was assayed on MIWI (PIWIL1) piRISC loaded with Kctd7 piRNA (30 nt) (assay: pre-steady-state target cleavage rate (min^-1); MIWI and MILI are mouse PIWI proteins and EfPiwi is from a freshwater sponge; tags in brackets are library labels; higher = faster piRNA-guided slicing of the target). Conditions: guide: Kctd7 piRNA 5'p-UGUUAAUCUCUCAGAGAAGGUGACAGUGAU; auxiliary factor: 500 nM mouse GTSF1.
Method in brief: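 In HEPES–potassium acetate buffer at 33 °C, […] transcribed, DNA-blocked target RNA library was mixed with 1 nM active affinity-purified piRISC carrying one synthetic guide, with or without 500 nM GTSF1 partner protein, for 0–8 or 0–960 min. Uncleaved targets were sequenced and normalised to depth and to weakly complementary targets; three trials were pooled and k3 was capped at 0.0001 min^-1. The pre-steady-state cleavage rate followed from a burst-and-steady-state fit.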
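Note: 1 nM active piRISC with 0.1 nM target library at 33 °C single turnover.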

Sequence | pre-steady-state target cleavage rate
UAGUCUGUCACCUUCUCUGAGUGAUUUUGA | 0.00286 ± 0.0043
UAGACUGUCACCUUCUCUGACUCAUUUUGA | 0.000687 ± 0.0089
UUCACCGUCACCUUCUCUGAGAGAUUAACA | 0.698 ± 0.03
UAGUGACAGACCUUCUCUGAAGAUUAACA | 0.00135 ± 0.0052
UUCAGACUCACCUUCUCUGAGAGAUUAACA | 0.472 ± 0.035
AUGACUGUCACCUUCUCUGAGAGAUUAAGA | 0.205 ± 0.028
UAGUGAGUCACCUUCAGAGAGAGAUUUUGA | 0.00316 ± 0.006
UAGUGACAGUGGUCUCUGAGAGAUUAACA | 0.000322 ± 0.011
UAGUGACAGUGGUUUCUGAGAGAUUAACA | < 0.0001
UACACAGUCACGUUCUCUGAGAGAUUAACA | 0.679 ± 0.035
UAGUGACAGUGCUUCUCUGAGAAGAUUAACA | 0.002 ± 0.0038
AUCACUGUCACCUCCUCUGAGAGAUUAACA | 0.802 ± 0.033
UAGUGACAGUGGAAGAGAGAGAGAUUCACA | 0.00016 ± 0.038
UAGAGUGACACCUUCUCUGAGAGAUUAACA | 0.55 ± 0.023
UAGUGACAGUGCUUCUCGAGAGAUUAACA | 0.00157 ± 0.0066
UAGUGACAGUGCUUCUCUGAGUGAUUAACA | 0.00177 ± 0.0039
UAGUGUGUCACCUUGACUGAGAGAUUAUGA | 0.00151 ± 0.0069
UAGUGACAGACCAUCUCUGAGUGAUUAACA | 0.00232 ± 0.0036
UAGUGAGUCACCUUGACUGAGAGAUUUUGA | 0.000739 ± 0.017
UAGUGACAGUCCUACUCUGAGAGAUUAAGA | 0.000584 ± 0.0081
UAGUGACACACCUUGACUGAGAGAUUUUGA | 0.000795 ± 0.015
UAGUGACAGUCCUUCUCUGUGAGAUUAUGA | 0.000413 ± 0.011
UAGUGUGUCACCUUGAGUGAGAGAUUAUGA | 0.000237 ± 0.046
UUCACUGUCACCUUCUCUGAGUCAUUAAGA | 0.00191 ± 0.0035
UAGUGACAGUCCUACUGUGAGAGAUUAACA | 0.000137 ± 0.022

Sequence | pre-steady-state target cleavage rate
UAGUGACAGUGCUUCUCUGGAGAGAUUAACA | 0.000355 ± 0.014
UAGUGACAGUGGAAGAGUCAGAGUUUAACA | 0.000101 ± 0.036
UAGUGACUGUCCUUCUCUGAGAGAUUAUGA | 0.00171 ± 0.009
UACAACUGUCACCUUCUCUGAGAGAUUAACA | 0.744 ± 0.042
UAGUGACAGACCUUGUCAGAGAGAUUAACA | 0.00194 ± 0.0066
UAGUGUGUCACCUUCUCUGAGUCAUUAAGA | 0.00409 ± 0.0048
UAGUGACUCACCUUCUCUGUCUGAUAUUGA | 0.000198 ± 0.045
UACACUGUCACCUUCUCUGAGACUAUAUGA | 0.00209 ± 0.005
UAGUGACACACCUUGACUGAGAGAUUAAGA | 0.00167 ± 0.0059
AUCACUGUUCACCUUCUCUGAGAGAUUAACA | 0.79 ± 0.046
UAGUGACAGACCUUCUCUGAGAGUAUAAGA | 0.000105 ± 0.055
UAGUGACAGACCUUCUCUGAGAGAUAUAGA | 0.00215 ± 0.0044
AUCACGUCACCUUCUCUGAGAGAUUAACA | 0.732 ± 0.041
UAGUGACAGUGGAAGAGAGACAGAAUAACA | 0.000177 ± 0.035
UAGUGAGUCUGGUUCUCUGAGAGAUUAAGA | 0.000264 ± 0.014
UAGUGACAGUGGAUCUCUGGGAGAUUAACA | 0.000154 ± 0.018
UAGUCUGUCACCUUGACUGAGAGAUAUUGA | 0.000689 ± 0.0095
UUCCUGUCACCUUCUCUGAGAGAUUAACA | 0.633 ± 0.037
AUCACUGUCACCGUCUCUGAGAGAUUAACA | 0.608 ± 0.038
UAGUGACACACCUUCUCUGAGUGAUAUUGA | 0.00025 ± 0.026
UAGUGACAGUCCUACACUGAGAGAUUAACA | 0.000552 ± 0.01
UAGUGACUCACCAAGUCUGAGAGAUUAUGA | 0.000124 ± 0.039
UAGUGACUCACCAUCUCUGAGAGAUAUUGA | 0.00136 ± 0.0047
UUCACUGUCACCUUCUCACUGAGAUUAUGA | 0.0029 ± 0.0048
UAGACUGUCACCUUCUCUCUGAGAUUAAGA | 0.00246 ± 0.0032

In another format: entries from further up.

| Sequence | pre-steady-state target cleavage rate |
| --- | --- |
| UAGUGACAGUCCUACUCUGAGAGAUUAAGA | 0.000584 ± 0.0081 |
| UAGUGACACACCUUGACUGAGAGAUUUUGA | 0.000795 ± 0.015 |
| UAGUGACAGUCCUUCUCUGUGAGAUUAUGA | 0.000413 ± 0.011 |
| UAGUGUGUCACCUUGAGUGAGAGAUUAUGA | 0.000237 ± 0.046 |

Following part

Sequence | pre-steady-state target cleavage rate
UAGUGACAGACCUUCUCUGAGAGAAUAUGA | 0.000996 ± 0.009
UAGUGACACACCUUCUCUCUGAGAUUAUGA | 0.000767 ± 0.013
UAGUGUGUCAGCUUCUCUGAGAGAUAUUGA | 0.00303 ± 0.0041
UAGUGACAGUGCAUCUCUGAGAGAUUUACA | 0.000311 ± 0.018
UAGACUGAGACCUUCUCUGAGAGAUUUUGA | 0.0025 ± 0.003
UAGUGACAGACCUACUCUGACAGAUUAACA | 0.00139 ± 0.0068
UAGUCUGUCACCUUCUGAGAGAGAUAUUGA | 0.00166 ± 0.0068
UAGUGACUCACCUUCCUGAGAGAUUAACA | 0.00331 ± 0.0042
UAGUCUGUCACCUUCUCUGUCAGAUAUUGA | 0.00355 ± 0.0047
UAGUGACAGUGGAAGAGUGAGUGAAUAACA | 0.000216 ± 0.018
UACACUGUCACCUUGCUCUGAGAGAUUAACA | 1.01 ± 0.17
UAGUGACAGACCUUCUCUGAUGAGAUUAACA | 0.000945 ± 0.012
UAGUCUGUCUGGUUCUCUGAGAGAUUAAGA | 0.00108 ± 0.0055
UAGUGACUGCACCUUCUCUGAGAGAUUAACA | 0.77 ± 0.05
UAGUGACAGUGGAAGAGUGAGAGUUUUACA | 0.000279 ± 0.026
UAGUGACAGUGCUUCUCUGAGUGUUUAACA | 0.000137 ± 0.021
UAGUGACAGUCCUUCUCAGACAGAUUAACA | 0.00145 ± 0.0049
UAGUGACAGAGCUUCUCUGAGAGAUUUUGA | 0.000321 ± 0.018
UAGUGACAGUCCUUCUCUCUCUCUAAUUGA [g13:g20:cont:t1A] | 0.000163 ± 0.03
UAGUGACAGUCGUUCUCUGAGAGUUUAACA | 0.000859 ± 0.012
UAGUCUGAGUCCUUCUCUGAGAGAUAUUGA | 0.00122 ± 0.0049
UAGUGACAGUCCUUCACUGAGAGAUUAAGA | 0.00122 ± 0.0069
UACACUGUACACCUUCUCUGAGAGAUUAACA | 0.623 ± 0.03
